Results published in doi:10.1101/2020.12.30.424702.
No constants are given. Whether binding was seen depends on the method and setting. Some binding calls cover weakened binding; strength is not graded here.

By UniProt entry, the sequences of proteins in these tests, tags left out. Where a name states a change or a piece, a line headed by the entry shows the natural chain unless it says otherwise. Residues count along the entry.
UniProt O43707: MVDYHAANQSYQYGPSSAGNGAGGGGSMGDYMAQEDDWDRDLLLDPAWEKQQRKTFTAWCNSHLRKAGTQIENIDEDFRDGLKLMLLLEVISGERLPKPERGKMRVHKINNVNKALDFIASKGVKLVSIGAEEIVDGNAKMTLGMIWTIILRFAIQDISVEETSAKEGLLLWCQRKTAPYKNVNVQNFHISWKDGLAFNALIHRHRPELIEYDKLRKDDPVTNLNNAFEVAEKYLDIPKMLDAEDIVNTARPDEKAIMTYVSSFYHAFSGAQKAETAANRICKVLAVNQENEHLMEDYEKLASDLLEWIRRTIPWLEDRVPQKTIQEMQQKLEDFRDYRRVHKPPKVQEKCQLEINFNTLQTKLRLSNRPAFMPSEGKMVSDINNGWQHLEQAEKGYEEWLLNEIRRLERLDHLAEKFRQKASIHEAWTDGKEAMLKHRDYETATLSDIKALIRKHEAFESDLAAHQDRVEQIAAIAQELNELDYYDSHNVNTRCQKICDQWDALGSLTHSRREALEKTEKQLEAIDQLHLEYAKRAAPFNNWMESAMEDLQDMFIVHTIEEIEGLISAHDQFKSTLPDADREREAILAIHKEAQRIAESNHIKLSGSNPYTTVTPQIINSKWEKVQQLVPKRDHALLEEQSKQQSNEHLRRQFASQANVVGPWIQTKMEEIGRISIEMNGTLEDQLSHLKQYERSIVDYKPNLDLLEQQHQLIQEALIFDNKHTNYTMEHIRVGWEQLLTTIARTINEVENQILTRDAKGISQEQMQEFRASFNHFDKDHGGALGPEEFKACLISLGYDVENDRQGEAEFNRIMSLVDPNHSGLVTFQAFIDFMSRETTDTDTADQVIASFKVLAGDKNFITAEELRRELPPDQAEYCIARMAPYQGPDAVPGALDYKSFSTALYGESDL
maltose-binding protein fusion of alpha-actinin-4 spectrin repeats/EF hands (271-911aa): residues 271-911 of O43707

Target: maltose-binding protein fusion of alpha-actinin-4 spectrin repeats/EF hands (271-911aa) (human) (UniProt O43707)
Test: co-purification of two co-expressed constructs

## recombinant 6-His tagged alpha-actinin-4 full length (1-911aa) (from UniProt O43707-1 1-911)
  binding: binds
